Source: paper PMC3245618
Substitutions are numbered along the chain they refer to. In names and notes the source's numbering stands. No constants are given. Whether binding was seen depends on the method and setting. In cells and extracts the contact can be indirect. Some results given as binding are weak or reduced against the parent protein; the word gives no strength. Sequences can lack the tags named with a protein. One block for each binder: values may come before it.

The chains behind the UniProt entries cited, without tags or fusion partners.
UniProt P83916: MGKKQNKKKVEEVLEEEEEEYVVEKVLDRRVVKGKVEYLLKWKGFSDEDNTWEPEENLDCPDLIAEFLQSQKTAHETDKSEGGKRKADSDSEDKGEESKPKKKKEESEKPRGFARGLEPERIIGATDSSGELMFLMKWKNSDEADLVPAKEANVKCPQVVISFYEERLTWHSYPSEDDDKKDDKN

Biological target: GST-HP1β (heterochromatin protein 1β) (UniProt P83916)
Test: pull-down; recombinant GST-HP1β as bait; cell extracts from U2OS cells expressing GFP-KAP1 versions; only the target purified

binding: binds
B1: GFP-KAP1 S473A, stably expressed in U2OS cells (protein, UniProt Q13263 1-835)
chain: MAASAAAASAAAASAASGSPGPGEGSAGGEKRSTAPSAAASASASAAASSPAGGGAEALELLEHCGVCRERLRPEREPRLLPCLHSACSACLGPAAPAAANSSGDGGAAGDGTVVDCPVCKQQCFSKDIVENYFMRDSGSKAATDAQDANQCCTSCEDNAPATSYCVECSEPLCETCVEAHQRVKYTKDHTVRSTGPAKSRDGERTVYCNVHKHEPLVLFCESCDTLTCRDCQLNAHKDHQYQFLEDAVRNQRKLLASLVKRLGDKHATLQKSTKEVRSSIRQVSDVQKRVQVDVKMAILQIMKELNKRGRVLVNDAQKVTEGQQERLERQHWTMTKIQKHQEHILRFASWALESDNNTALLLSKKLIYFQLHRALKMIVDPVEPHGEMKFQWDLNAWTKSAEAFGKIVAERPGTNSTGPAPMAPPRAPGPLSKQGSGSSQPMEVQEGYGFGSGDDPYSSAEPHVSGVKRSRAGEGEVSGLMRKVPRVSLERLDLDLTADSQPPVFKVFPGSTTEDYNLIVIERGAAAAATGQPGTAPAGTPGAPPLAGMAIVKEEETEAAIGAPPTATEGPETKPVLMALAEGPGAEGPRLASPSGSTSSGLEVVAPEGTSAPGGGPGTLDDSATICRVCQKPGDLVMCNQCEFCFHLDCHLPALQDVPGEEWSCSLCHVLPDLKEEDGSLSLDGADSTGVVAKLSPANQRKCERVLLALFCHEPCRPLHQLATDSTFSLDQPGGTLDLTLIRARLQEKLSPPYSSPQEFAQDVGRMFKQFNKLTEDKADVQSIIGLQRFFETRMNEAFGDTKFSAVLVEPPPMSLPGAGLSSQELSGGPGDGP

binding: binds
B2: GFP-KAP1 S473D, stably expressed in U2OS cells (protein, UniProt Q13263 1-835)
chain: B1 chain with A473D
